# Data reported in US8809538B2, “Piperidine-containing compounds and use thereof” (Array BioPharma Inc., priority 2009, dated 2014).
# Test system: high fat-fed obese mice (C57BL/6-DIO)
# Experiment: Assay of an anti-diabetic effect in DIO (diet-induced obese) mice
# Format: in vivo
# Details: oral, 30 or 100 mg/kg b.i.d. for 15 days
# Source text: (1) Assay of an Anti-Diabetic Effect of the Compounds in DIO (Diet-Induced Obese) Mice
# Male, 12-weeks old high fat-fed obese mice (C57BL/6-DIO, Charles River Japan) were orally administered with the compounds of the present invention twice a day for 15 days. During the experiment, mice were provided high fat pellet diet (D12492, Research Diets) and tap water from bottle of feed water ad libitum. On the first day of the experiment, blood samples were collected from tail vein using a microcapillary to measure plasma glucose concentration. Based on plasma glucose concentration, mice were divided into some groups (five mice per group) and started dosing. The dosing was carried out by oral gavage, after suspending the compounds of the present invention in the previously described vehicle. The control group received only the vehicle. After 15 days from starting the dosing, plasma samples were collected from tail vein at overnight fasting state. Plasma glucose and insulin levels were measured with commercial kits (glucose, Glucose CH-Test Wako®, Wako Pure Chemical Industries, Ltd.; insulin, Rat Insulin ELISA Kit, Morinaga Institute of Biological Science Inc.).
smiles,measurement,value
"CCOc1nc(C(=O)NCC2CCN(Cc3cnc(-c4ccccn4)s3)CC2)cc(N)c1C#N [Example 115, 4-amino-5-cyano-6-ethoxy-N-((1-((2-(pyridin-2-yl)thiazol-5-yl)methyl)piperidin-4-yl)methyl)picolinamide]",effect on body weight,without any effects
same,effect on food intake,without any effects
